Experimental data reported in publication PMC10079833.
These are yes or no findings as the source states them, for the method shown. Binding seen in cells or lysates may run through a third protein. A yes stands for co-enrichment or nearness to the bait. Other partners may have been found.

The chains behind the UniProt entries cited, without tags or fusion partners.
UniProt O60678: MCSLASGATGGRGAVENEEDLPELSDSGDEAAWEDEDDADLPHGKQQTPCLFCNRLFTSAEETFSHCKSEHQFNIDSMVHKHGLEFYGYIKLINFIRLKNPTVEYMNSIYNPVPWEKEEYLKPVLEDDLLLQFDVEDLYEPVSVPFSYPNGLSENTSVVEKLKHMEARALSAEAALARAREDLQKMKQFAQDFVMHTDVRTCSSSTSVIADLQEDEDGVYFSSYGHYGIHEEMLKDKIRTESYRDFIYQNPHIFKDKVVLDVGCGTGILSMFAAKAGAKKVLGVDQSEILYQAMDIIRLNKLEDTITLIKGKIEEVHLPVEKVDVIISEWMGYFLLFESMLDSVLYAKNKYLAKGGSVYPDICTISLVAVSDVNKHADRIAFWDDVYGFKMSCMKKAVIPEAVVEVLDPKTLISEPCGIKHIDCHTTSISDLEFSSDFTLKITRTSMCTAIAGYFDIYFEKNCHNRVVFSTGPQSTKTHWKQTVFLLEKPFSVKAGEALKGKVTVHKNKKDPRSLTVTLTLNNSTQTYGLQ
UniProt P67809: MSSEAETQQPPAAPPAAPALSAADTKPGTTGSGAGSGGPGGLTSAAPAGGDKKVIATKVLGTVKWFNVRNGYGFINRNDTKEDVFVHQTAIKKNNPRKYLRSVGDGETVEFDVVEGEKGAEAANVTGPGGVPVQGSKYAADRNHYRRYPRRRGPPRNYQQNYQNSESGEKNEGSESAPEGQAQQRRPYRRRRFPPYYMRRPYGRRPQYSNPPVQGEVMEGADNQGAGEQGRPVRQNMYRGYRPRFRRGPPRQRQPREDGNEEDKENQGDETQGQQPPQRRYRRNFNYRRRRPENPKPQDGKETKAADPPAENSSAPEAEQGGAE

Target: Protein arginine methyltransferase 3 (human (endogenous in PLC-8024, Huh7, Huh7-R, HepG2)) (UniProt O60678)
Assay: affinity purification with mass spectrometry; proteins co-precipitated with PRMT3 from PLC-8024 and HepG2 cell lysates, analysed by LC-MS/MS; 84 proteins common to both cell lines

binding: binds
Substance: YBX1 (from UniProt P67809 1-324)
